In patent publication US20080248034A1:
No constants are given. Whether binding was seen depends on the method and setting. Some entries that bind do so weakly or less than the wild type. Tags and fused reporters may be left off the sequences shown.

The chains behind the UniProt entries cited, without tags or fusion partners. Where a name states a change or a piece, a line headed by the entry shows the natural chain unless it says otherwise.
UniProt P02751: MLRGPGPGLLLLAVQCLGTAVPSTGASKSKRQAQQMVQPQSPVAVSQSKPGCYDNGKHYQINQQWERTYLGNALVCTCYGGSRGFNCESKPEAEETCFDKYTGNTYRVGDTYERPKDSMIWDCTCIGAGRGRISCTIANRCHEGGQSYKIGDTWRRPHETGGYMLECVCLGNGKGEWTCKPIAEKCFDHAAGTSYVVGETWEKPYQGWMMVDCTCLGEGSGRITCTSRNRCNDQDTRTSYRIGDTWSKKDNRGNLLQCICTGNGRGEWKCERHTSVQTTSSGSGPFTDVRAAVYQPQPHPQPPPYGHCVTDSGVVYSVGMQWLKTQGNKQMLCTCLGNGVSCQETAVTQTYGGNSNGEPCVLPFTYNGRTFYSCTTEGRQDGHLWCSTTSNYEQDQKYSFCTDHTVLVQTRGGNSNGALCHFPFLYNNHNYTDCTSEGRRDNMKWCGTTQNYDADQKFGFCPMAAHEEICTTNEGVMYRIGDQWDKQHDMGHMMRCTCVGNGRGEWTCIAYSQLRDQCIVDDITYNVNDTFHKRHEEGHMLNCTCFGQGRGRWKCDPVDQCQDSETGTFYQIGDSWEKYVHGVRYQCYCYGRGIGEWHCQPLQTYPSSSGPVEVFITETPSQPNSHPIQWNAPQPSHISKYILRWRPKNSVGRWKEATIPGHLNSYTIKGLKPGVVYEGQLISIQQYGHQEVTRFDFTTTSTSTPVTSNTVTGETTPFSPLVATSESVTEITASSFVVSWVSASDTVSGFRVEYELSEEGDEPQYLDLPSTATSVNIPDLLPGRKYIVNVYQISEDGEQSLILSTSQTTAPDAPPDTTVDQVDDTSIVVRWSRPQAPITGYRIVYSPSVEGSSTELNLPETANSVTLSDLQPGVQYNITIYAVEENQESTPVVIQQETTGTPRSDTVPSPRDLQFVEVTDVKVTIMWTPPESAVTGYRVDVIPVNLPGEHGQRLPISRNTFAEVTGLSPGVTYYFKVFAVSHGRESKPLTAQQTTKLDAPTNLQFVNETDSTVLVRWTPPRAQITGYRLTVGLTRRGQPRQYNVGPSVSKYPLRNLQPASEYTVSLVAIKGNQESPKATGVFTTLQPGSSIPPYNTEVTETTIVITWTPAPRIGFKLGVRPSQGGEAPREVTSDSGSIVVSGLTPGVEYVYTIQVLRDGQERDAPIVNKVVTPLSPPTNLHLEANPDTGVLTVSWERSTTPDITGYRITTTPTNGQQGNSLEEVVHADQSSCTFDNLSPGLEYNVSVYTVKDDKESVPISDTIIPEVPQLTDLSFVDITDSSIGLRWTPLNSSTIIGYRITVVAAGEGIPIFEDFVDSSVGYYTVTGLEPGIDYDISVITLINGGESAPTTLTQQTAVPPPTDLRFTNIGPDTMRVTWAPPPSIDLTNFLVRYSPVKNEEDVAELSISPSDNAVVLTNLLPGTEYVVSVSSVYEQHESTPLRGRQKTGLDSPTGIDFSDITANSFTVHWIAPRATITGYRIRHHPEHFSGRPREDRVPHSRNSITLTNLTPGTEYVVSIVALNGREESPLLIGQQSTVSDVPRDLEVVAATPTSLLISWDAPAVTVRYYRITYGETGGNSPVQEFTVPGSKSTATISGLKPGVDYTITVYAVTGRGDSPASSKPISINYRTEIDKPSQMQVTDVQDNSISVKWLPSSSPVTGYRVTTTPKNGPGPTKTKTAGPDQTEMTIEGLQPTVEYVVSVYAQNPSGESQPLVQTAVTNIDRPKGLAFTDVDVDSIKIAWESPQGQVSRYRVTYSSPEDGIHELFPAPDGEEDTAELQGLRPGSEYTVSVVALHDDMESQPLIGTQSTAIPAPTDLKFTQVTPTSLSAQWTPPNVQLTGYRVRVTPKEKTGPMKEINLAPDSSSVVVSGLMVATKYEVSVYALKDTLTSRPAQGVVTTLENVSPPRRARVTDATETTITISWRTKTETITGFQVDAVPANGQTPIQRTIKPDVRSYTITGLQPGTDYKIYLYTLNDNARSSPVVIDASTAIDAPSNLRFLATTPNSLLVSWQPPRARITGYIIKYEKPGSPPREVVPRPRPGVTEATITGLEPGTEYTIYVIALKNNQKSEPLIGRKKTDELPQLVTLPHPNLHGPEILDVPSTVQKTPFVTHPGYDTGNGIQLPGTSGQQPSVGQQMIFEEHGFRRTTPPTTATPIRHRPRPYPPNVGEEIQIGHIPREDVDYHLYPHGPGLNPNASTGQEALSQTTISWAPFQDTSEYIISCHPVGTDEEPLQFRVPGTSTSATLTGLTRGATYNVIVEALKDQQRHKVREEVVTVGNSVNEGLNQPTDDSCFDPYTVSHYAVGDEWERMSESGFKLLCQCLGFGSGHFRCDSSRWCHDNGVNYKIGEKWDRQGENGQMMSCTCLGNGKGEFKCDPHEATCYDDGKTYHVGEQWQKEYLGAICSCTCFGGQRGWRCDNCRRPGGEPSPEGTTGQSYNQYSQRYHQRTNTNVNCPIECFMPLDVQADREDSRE

Biological target: Fibronectin (FN), full length, purified from human plasma (human) (UniProt P02751)
Test: ELISA, FN-coated plate

binding: binds
B1: fusion protein containing the murine gamma heavy chain and only the lectin domain of endosialin (Fc fusion, UniProt Q9HCU0 18-156, looked up, not shown: a dimerising Fc or GST)
chain: QDPWAAEPRAACGPSSCYALFPRRRTFLEAWRACRELGGDLATPRTPEEAQRVDSLVGAGPASRLLWIGLQRQARQCQLQRPLRGFTWTTGDQDTAFTNWAQPASGGPCPAQRCVALEASGEHRWLEGSCTLAVDGYLC
